PubChem BioAssay AID602196, INSERM | 2012
The whole screen tested about 23,000 reagents; this is a random part of them. 455 of them (2%) count as active. 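Active includes both protection and sensitisation; some change values fall well beyond the stated -50 to +50 range.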 Entries without a mark were called inactive. The record does not give: the amount of reagent.

- Purpose: 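Modifiers of cisplatin sensitivity in A549 cells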
- System: human A549 lung cancer cells
- Reagent: siRNA pair against human genes
- Duration: 48 h transfection before cisplatin; time from cisplatin to read-out not stated
- Challenge: cisplatin at a dose killing half of control-siRNA cells; exact dose and duration not given
- Detection: 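Cisplatin cell death as a shift from the 50% death seen with control siRNA; siRNAs toxic or growth-blocking alone scored 0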
- Scale: two-siRNA summed score (-2 to +2): higher = both siRNAs protect from cisplatin killing; -2 means both sensitise; mean protection from cisplatin (shift in death) and protection from cisplatin (shift in death), siRNA C and protection from cisplatin (shift in death), siRNA D: higher = protection from cisplatin killing
- Call rule: 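Each siRNA scores 0 if harmful alone by LDH or WST-1, otherwise +1 if it reduces and -1 if it increases cisplatin killing; a gene is active when both siRNAs agree (sum +2 or -2)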
- Meaning of the calls: active = both siRNAs shift cisplatin killing the same way; inactive = no consistent shift, or siRNA harmful alone

gene | two-siRNA summed score (-2 to +2) | mean protection from cisplatin (shift in death) (%) | protection from cisplatin (shift in death), siRNA C (%) | protection from cisplatin (shift in death), siRNA D (%)
GABRA6 | 1 | 2 | 9.4 | -5.5
SSC4D | 0 | 15.1 | 4.3 | 25.9
KIF19 | 0 | 1.7 | -12.8 | 16.3
TTC13 | 0 | 2 | -5.2 | 9.2
LOC440264 | 0 | 23.3 | 23.7 | 22.9
BARX1 | 1 | 12.7 | 20.4 | 5
JUNB | -1 | -5.6 | -20.1 | 8.9
LOC387716 | 1 | 7.5 | -3.6 | 18.5
SIRT2 | 0 | -22 | -17.6 | -26.4
ANKRD42 | 0 | 8.6 | 8.8 | 8.5
S100A13 | 0 | 4.8 | -14.5 | 24
AFP | 0 | -1.5 | -7.9 | 4.9
A2ML1 | 0 | -1.8 | 6 | -9.5
SCYL2 | 1 | 4.5 | -12 | 21
GNAQ | 0 | -1.2 | 5.5 | -7.9
PDP1 | 1 | 14.2 | 6 | 22.5
LOC92482 | 0 | -3.3 | 0.8 | -7.4
PSMG3-AS1 | 0 | 1.8 | -6.9 | 10.4
MGC26694 | 0 | 1.8 | 12.3 | -8.6
NDUFAF2 | 1 | 10 | -2.8 | 22.8
LOC439952 | 0 | 10.2 | 9.8 | 10.7
KSR2 | 0 | 7 | 1.2 | 12.8
DIPK1A | 0 | -5.8 | -8.1 | -3.6
CABLES2 | 0 | 0.9 | 3.7 | -2
ANKRD28 | 0 | 2.1 | 2.4 | 1.8
LBH | -1 | -13.4 | -27.3 | 0.5
DPYSL4 | 0 | 2.3 | 1.7 | 2.9
LOC442644 | 0 | 1.4 | 7.5 | -4.6
LY6G5C | 1 | 1.3 | -5.9 | 8.4
SLC25A14 | 0 | -1.4 | -2.3 | -0.6
FLJ35107 | 0 | -0.2 | 0.5 | -0.8
STRADA | -1 | 2.3 | -10.6 | 15.3
OR8K1 | 0 | 1.9 | 10.4 | -6.7
LOC441172 | 1 | 8.6 | 16.4 | 0.8
LOC121981 | 0 | 5.8 | 2.3 | 9.4

Copied from above for reference:
gene | two-siRNA summed score (-2 to +2) | mean protection from cisplatin (shift in death) (%) | protection from cisplatin (shift in death), siRNA C (%) | protection from cisplatin (shift in death), siRNA D (%)
GABRA6 | 1 | 2 | 9.4 | -5.5
SSC4D | 0 | 15.1 | 4.3 | 25.9
KIF19 | 0 | 1.7 | -12.8 | 16.3
TTC13 | 0 | 2 | -5.2 | 9.2
LOC440264 | 0 | 23.3 | 23.7 | 22.9
BARX1 | 1 | 12.7 | 20.4 | 5

Next reagents follow.
gene | two-siRNA summed score (-2 to +2) | mean protection from cisplatin (shift in death) (%) | protection from cisplatin (shift in death), siRNA C (%) | protection from cisplatin (shift in death), siRNA D (%)
CRBN | 0 | 2.7 | 5.3 | 0.1
BTRC | 0 | 19.9 | 14.2 | 25.7
LOC440481 | -1 | -6.2 | -14 | 1.6
AK1 | 1 | 8.6 | 21 | -3.7
KRT32 | 1 | 10.9 | 4.6 | 17.2
DNAI4 | 0 | 0.5 | 8.7 | -7.6
BCL7A | -1 | -3.9 | -12.2 | 4.4
C5orf22 | 1 | 10.7 | -1.4 | 22.8
THEM6 | 0 | 5.6 | -1.7 | 12.8
PSMA5 | 1 | 7.4 | -3.7 | 18.4
TCEAL6 | 0 | 7 | 8.1 | 5.8
HDAC3 | 0 | 7.9 | 9.4 | 6.3
NHLH2 | 0 | 2.4 | -1 | 5.9
PPFIA2 | 0 | -6.7 | -8.3 | -5.1
FOLR1 | -1 | -24.8 | -20.2 | -29.4
LOC399747 | 0 | 8.6 | 12.4 | 4.8
GATA5 | 0 | -9.2 | -9.7 | -8.7
LOC344382 | 0 | 2.5 | 7.4 | -2.3
LOC390007 | 0 | 0 | 3.2 | -3.3
CDK11A | -1 | -14.4 | -14.3 | -14.6
CBX3 | 0 | -9 | -10.6 | -7.4
OR5H2 | -1 | -3.7 | 2.8 | -10.2
